Results: PMC4995097, “Talin-KANK1 interaction controls the recruitment of cortical microtubule stabilizing complexes to focal adhesions” (eLife, 2016)
Results are given in words; binding and its absence hold for the method and conditions named. Binding seen in cells or lysates may run through a third protein. Here binding means that the protein was enriched with, or labelled near, the bait; the list need not be complete. No binding means not detected with the bait. Where a sequence is shown, tags or fusion partners need not be part of it.

The chains behind the UniProt entries cited, without tags or fusion partners.
UniProt Q7Z4S6: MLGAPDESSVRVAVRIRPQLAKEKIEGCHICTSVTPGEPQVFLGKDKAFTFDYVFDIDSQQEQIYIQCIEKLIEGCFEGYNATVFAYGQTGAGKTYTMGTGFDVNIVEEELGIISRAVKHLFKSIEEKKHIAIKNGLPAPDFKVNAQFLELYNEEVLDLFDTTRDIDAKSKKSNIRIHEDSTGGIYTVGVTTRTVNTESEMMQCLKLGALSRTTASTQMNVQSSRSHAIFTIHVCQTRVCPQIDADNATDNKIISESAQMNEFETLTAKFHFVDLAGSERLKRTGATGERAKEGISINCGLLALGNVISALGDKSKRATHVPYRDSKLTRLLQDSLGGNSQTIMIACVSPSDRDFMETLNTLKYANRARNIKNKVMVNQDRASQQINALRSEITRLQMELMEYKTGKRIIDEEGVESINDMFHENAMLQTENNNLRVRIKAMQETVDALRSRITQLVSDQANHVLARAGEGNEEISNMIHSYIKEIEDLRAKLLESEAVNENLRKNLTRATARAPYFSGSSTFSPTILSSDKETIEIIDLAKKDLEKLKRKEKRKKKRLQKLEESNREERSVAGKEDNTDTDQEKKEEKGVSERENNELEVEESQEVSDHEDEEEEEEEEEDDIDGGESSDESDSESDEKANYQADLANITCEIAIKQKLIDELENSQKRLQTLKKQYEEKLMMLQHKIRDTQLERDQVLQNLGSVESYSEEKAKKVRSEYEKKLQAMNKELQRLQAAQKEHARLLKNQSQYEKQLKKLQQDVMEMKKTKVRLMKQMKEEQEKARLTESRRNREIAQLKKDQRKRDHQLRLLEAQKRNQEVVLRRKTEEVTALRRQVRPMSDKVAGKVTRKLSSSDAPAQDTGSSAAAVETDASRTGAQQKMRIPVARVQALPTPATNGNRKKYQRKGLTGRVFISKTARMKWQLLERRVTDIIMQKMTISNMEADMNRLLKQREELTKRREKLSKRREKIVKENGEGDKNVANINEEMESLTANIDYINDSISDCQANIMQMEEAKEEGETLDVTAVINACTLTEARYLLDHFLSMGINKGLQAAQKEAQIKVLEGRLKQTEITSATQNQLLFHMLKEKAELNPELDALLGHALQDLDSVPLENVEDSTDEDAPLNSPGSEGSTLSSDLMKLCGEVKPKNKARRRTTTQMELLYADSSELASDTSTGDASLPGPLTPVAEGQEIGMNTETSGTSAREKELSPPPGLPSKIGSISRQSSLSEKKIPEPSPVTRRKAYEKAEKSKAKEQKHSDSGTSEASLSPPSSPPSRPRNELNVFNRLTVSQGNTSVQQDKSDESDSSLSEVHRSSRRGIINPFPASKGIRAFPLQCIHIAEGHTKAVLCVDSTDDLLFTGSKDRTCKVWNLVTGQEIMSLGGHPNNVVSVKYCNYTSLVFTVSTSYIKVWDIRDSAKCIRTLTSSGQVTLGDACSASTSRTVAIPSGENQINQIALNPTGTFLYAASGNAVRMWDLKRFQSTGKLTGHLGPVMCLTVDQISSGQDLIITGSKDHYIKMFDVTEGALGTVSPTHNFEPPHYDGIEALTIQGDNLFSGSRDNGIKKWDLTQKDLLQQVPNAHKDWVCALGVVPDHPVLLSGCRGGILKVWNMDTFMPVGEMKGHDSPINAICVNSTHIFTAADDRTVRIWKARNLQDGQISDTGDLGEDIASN
UniProt Q9Y4G6: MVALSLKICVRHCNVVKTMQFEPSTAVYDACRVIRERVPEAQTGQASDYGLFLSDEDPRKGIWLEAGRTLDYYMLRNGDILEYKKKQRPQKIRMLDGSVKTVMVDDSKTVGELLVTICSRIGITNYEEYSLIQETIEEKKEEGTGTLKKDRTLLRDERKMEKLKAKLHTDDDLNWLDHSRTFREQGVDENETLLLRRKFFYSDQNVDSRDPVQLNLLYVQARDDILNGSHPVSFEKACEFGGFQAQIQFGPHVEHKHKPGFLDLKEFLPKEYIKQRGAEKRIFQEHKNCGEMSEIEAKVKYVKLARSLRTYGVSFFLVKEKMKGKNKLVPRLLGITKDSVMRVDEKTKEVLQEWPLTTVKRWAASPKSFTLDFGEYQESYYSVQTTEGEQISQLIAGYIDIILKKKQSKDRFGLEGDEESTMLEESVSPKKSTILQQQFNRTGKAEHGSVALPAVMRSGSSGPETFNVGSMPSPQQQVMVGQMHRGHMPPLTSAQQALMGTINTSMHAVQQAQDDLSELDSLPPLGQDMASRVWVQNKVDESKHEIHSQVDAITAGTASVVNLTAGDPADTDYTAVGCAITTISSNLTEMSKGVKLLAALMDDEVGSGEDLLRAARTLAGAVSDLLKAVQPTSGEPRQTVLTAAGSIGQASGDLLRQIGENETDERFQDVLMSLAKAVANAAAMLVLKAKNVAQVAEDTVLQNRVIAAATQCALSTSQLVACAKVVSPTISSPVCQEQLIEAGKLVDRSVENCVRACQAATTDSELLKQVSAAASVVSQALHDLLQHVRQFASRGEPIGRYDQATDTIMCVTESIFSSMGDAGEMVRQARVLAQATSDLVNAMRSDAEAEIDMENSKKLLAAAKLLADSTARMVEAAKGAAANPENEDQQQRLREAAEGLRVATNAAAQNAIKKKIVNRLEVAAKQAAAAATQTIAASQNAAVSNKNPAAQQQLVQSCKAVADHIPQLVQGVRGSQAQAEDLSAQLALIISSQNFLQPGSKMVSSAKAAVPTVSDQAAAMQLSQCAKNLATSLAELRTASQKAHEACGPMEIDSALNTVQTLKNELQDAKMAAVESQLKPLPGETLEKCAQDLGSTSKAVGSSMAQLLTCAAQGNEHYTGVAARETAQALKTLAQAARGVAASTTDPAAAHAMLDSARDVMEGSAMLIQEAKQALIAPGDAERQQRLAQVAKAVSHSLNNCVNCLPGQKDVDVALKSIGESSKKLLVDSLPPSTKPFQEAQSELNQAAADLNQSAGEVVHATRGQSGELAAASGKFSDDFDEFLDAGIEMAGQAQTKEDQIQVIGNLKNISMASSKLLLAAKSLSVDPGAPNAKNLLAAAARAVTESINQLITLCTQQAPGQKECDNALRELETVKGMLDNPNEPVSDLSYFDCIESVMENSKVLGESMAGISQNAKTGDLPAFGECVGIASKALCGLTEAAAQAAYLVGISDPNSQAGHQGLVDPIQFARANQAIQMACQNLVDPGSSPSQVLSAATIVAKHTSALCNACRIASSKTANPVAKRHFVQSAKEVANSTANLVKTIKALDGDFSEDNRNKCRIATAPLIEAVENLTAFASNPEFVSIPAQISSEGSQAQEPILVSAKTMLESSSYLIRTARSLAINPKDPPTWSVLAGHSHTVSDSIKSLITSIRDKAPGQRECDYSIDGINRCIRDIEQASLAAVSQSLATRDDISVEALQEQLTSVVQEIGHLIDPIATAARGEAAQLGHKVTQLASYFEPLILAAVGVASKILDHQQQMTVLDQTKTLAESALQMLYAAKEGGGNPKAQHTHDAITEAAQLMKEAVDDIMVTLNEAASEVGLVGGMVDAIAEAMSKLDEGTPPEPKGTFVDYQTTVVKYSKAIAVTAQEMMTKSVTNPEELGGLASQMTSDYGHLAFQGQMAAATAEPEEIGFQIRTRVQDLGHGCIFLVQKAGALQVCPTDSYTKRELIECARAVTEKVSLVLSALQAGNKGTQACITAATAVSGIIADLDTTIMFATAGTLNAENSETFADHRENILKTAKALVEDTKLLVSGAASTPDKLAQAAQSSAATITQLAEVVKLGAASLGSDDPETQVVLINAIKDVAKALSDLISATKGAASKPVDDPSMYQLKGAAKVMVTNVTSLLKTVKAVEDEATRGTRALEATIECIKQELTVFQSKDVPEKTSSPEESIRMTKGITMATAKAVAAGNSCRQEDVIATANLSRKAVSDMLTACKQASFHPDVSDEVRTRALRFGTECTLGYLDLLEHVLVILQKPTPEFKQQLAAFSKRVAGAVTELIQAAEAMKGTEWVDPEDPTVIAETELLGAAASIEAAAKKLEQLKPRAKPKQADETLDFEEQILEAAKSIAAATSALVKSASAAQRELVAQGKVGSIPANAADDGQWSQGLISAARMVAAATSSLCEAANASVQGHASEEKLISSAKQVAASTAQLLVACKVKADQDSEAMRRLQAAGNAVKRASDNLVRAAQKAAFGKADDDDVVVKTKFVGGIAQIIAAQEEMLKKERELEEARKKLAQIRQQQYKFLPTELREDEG

Target: T1, BioGFP-tagged KANK1 (full-length) (human) (UniProt Q14678)
T1 sequence (chain, biotinylated on the Bio tag (by BirA)): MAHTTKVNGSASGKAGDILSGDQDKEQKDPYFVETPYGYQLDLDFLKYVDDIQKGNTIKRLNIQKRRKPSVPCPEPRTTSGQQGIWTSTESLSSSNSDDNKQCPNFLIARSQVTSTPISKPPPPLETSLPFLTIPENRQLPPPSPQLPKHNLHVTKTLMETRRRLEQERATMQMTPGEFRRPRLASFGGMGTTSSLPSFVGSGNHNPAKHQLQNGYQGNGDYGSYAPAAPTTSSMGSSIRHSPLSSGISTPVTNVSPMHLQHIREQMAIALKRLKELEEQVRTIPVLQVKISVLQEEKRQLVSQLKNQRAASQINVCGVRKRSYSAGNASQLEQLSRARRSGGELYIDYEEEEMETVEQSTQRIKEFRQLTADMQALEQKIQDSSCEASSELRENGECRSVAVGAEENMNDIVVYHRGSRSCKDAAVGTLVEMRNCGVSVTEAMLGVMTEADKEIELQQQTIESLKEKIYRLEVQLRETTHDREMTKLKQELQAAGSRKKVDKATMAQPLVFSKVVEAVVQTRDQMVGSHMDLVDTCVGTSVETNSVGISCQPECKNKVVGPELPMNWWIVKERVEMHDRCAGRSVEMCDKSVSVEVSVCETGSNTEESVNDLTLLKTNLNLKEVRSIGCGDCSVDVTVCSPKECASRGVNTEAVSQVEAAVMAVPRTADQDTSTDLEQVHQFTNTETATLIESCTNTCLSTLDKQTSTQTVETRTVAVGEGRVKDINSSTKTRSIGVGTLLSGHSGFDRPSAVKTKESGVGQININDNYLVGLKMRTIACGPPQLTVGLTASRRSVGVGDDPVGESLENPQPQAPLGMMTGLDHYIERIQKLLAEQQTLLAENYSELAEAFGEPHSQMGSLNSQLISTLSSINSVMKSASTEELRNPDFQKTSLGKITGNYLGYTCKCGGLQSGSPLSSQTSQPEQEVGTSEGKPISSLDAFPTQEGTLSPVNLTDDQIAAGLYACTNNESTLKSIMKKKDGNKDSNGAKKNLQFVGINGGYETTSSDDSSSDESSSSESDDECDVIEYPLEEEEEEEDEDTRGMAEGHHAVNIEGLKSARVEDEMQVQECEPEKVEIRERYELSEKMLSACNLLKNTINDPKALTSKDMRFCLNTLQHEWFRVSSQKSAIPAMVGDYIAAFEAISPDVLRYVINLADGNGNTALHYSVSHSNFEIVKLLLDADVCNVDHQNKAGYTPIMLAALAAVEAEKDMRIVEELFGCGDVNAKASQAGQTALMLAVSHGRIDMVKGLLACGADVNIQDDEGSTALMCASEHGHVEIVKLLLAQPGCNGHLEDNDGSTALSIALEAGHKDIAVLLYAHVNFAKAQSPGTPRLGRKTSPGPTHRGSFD
Assay: affinity purification with mass spectrometry; Bio-GFP-tagged KANK1 or its N- and C-terminal fragments co-expressed with biotin ligase BirA in HEK293T; streptavidin beads; endogenous preys found by nanoLC-MS/MS

binding | Substance
binds | KIF21A (endogenous, HEK293T) (from UniProt Q7Z4S6 1-1674)
no binding | talin2 (endogenous, HEK293T) (from UniProt Q9Y4G6 1-2542)
